No constants are given. Whether binding was seen depends on the method and setting. In cells and extracts the contact can be indirect. These calls come from enrichment with a bait or labelling near it, and not all partners need be listed. Sequences can lack the tags named with a protein.

Amino acid sequences for entries named in this document (tags omitted).
UniProt P39880: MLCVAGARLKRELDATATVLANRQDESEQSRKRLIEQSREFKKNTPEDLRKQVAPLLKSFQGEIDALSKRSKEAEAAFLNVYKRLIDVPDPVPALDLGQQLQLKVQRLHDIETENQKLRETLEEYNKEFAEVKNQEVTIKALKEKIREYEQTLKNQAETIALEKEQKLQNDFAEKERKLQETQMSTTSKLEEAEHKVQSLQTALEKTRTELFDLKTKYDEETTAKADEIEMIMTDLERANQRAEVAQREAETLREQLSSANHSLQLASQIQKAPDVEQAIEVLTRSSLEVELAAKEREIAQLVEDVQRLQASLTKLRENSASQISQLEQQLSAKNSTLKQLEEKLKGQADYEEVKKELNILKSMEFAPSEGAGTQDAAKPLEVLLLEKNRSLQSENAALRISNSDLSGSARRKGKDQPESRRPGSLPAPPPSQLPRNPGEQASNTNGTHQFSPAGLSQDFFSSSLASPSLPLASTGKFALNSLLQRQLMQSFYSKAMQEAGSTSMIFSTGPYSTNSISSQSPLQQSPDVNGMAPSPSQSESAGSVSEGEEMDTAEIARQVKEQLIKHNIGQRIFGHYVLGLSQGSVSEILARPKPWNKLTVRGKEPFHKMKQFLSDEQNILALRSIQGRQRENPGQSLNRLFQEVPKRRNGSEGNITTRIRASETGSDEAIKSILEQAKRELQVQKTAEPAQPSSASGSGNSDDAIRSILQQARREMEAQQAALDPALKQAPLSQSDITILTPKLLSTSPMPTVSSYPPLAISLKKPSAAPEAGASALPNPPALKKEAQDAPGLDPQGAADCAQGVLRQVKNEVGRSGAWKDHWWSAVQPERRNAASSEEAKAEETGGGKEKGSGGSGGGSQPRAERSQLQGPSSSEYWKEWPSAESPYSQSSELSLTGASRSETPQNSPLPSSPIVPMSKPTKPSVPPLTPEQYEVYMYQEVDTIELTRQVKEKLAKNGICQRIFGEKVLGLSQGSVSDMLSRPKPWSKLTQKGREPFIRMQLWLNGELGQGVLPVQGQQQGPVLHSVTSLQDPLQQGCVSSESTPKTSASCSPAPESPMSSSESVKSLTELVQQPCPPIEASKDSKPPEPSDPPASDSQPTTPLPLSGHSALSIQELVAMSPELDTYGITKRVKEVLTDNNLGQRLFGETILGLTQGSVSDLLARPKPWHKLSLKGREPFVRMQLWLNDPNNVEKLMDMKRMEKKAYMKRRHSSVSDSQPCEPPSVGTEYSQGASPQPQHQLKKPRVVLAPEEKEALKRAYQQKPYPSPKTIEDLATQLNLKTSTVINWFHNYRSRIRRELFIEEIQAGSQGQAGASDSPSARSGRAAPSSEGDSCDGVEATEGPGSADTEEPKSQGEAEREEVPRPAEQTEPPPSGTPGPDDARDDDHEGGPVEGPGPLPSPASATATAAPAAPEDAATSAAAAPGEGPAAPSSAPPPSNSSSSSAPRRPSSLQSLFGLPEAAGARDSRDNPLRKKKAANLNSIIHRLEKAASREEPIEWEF
UniProt P49790: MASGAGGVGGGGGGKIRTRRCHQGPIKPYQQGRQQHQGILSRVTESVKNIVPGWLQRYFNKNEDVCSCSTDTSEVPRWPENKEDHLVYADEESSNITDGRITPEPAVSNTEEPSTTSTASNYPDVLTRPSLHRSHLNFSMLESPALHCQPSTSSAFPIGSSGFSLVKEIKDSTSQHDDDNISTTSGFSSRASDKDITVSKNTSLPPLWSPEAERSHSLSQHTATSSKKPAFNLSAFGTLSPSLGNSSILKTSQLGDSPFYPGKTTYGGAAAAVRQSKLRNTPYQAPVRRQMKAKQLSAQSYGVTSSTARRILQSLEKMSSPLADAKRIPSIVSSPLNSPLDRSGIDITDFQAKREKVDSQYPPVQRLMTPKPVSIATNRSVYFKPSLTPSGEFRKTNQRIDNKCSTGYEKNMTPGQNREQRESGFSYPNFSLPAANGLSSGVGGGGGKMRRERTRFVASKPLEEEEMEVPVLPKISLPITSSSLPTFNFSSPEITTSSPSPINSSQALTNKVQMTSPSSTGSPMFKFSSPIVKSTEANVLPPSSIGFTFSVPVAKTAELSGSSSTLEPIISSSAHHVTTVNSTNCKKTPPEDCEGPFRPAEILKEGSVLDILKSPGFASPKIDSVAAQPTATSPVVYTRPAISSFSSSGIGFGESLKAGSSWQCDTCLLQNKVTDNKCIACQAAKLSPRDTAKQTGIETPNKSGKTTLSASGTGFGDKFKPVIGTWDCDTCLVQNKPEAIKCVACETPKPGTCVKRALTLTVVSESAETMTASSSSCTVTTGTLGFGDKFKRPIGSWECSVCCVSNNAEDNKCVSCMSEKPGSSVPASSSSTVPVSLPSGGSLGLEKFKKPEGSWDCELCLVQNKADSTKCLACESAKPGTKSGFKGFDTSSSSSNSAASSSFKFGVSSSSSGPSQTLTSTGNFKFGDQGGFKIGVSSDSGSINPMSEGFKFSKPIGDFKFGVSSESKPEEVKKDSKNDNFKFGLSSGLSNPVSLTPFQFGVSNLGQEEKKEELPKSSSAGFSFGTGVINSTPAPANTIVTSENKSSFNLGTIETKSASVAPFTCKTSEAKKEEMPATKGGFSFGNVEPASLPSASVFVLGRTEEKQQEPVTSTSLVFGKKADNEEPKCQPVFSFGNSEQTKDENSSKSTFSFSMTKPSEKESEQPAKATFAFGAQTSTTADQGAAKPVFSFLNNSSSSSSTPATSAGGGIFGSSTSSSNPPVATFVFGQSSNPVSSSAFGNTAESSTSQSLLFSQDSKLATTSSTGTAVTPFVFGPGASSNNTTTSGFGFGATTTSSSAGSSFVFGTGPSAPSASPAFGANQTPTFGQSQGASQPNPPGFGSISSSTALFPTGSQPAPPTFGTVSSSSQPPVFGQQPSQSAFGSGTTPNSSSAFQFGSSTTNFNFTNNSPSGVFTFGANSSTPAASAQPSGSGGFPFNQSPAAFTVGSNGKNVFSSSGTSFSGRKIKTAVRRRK

B1: FAAP20 (protein, UniProt Q6NZ36 1-180)
chain: MEAARRPRLGLSRRRPRPAGGPSGGRPWFLLGGDERERLWAELLRTVSPELILDHEVPSLPAFPGQEPRCGPEPTEVFTVGPKTFSWTPFPPDLWGPGRSYRLLHGAGGHLESPARSLPQRPAPDPCRAPRVEQQPSVEGAAALRSCPMCQKEFAPRLTQLDVDSHLAQCLAESTEDVTW
B2: FANCG (protein, UniProt O15287 1-622)
chain: MSRQTTSVGSSCLDLWREKNDRLVRQAKVAQNSGLTLRRQQLAQDALEGLRGLLHSLQGLPAAVPVLPLELTVTCNFIILRASLAQGFTEDQAQDIQRSLERVLETQEQQGPRLEQGLRELWDSVLRASCLLPELLSALHRLVGLQAALWLSADRLGDLALLLETLNGSQSGASKDLLLLLKTWSPPAEELDAPLTLQDAQGLKDVLLTAFAYRQGLQELITGNPDKALSSLHEAASGLCPRPVLVQVYTALGSCHRKMGNPQRALLYLVAALKEGSAWGPPLLEASRLYQQLGDTTAELESLELLVEALNVPCSSKAPQFLIEVELLLPPPDLASPLHCGTQSQTKHILASRCLQTGRAGDAAEHYLDLLALLLDSSEPRFSPPPSPPGPCMPEVFLEAAVALIQAGRAQDALTLCEELLSRTSSLLPKMSRLWEDARKGTKELPYCPLWVSATHLLQGQAWVQLGAQKVAISEFSRCLELLFRATPEEKEQGAAFNCEQGCKSDAALQQLRAAALISRGLEWVASGQDTKALQDFLLSVQMCPGNRDTYFHLLQTLKRLDRRDEATALWWRLEAQTKGSHEDALWSLPLYLESYLSWIRPSDRDAFLEEFRTSLPKSCDL

This assay concerns the target T1, BirA*-Flag-FANCA (UniProt O15360).
T1 sequence: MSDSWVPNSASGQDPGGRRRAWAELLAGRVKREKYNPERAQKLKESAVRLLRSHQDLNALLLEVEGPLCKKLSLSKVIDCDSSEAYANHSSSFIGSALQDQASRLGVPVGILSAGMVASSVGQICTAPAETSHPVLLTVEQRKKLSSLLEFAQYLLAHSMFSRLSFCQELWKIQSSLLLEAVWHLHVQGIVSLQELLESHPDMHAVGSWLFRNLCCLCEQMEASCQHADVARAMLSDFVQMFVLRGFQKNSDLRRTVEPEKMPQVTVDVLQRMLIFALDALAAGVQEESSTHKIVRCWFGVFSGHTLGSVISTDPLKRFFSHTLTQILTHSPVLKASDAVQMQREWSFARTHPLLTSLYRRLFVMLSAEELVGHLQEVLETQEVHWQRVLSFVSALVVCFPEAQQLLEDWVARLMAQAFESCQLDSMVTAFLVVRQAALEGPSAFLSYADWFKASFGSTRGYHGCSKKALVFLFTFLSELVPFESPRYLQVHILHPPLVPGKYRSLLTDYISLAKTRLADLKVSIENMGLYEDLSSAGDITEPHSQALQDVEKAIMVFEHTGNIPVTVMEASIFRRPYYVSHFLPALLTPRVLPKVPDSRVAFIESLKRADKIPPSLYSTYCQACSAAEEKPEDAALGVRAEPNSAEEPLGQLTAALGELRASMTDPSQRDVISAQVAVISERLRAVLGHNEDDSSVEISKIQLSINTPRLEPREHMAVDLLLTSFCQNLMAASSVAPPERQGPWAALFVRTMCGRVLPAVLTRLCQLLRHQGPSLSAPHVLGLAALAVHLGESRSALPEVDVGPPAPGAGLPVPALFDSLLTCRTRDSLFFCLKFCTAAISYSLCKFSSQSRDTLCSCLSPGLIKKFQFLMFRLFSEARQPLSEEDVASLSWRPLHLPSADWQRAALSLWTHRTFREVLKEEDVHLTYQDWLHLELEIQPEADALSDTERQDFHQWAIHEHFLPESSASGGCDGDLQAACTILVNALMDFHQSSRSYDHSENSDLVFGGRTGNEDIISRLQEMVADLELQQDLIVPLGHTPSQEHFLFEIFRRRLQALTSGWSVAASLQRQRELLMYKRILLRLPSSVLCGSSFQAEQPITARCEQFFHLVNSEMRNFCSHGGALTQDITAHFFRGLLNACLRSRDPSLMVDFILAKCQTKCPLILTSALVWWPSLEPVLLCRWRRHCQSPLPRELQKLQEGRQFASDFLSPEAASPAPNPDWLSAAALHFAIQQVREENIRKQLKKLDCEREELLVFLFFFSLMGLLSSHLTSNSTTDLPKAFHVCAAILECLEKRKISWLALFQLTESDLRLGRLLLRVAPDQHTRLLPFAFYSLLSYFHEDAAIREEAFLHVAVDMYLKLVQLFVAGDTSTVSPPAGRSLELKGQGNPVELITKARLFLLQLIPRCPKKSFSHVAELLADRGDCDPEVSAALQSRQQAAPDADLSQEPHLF
In words: proximity labelling.
For the molecule CUX1 (from UniProt P39880 1-1505), the binding entry was “binds”.

For the molecule NUP153 (from UniProt P49790 1-1475), the binding entry was “binds”.

Take B1: the binding entry is reported as “binds”.

As for B2, the binding result was “binds”.
